Measurements as given in article doi:10.1101/495762 (bioRxiv, 2018).
Results are given in words; binding and its absence hold for the method and conditions named. In cells and extracts the contact can be indirect. Some entries that bind do so weakly or less than the wild type. Sequences can lack the tags named with a protein.

Tests used:
Assay in all cases: cross-linking
[1] = molecular target: T1, Smc3(K38I, K160C)-HaloTag (S. cerevisiae) (UniProt P47037)
T1 sequence: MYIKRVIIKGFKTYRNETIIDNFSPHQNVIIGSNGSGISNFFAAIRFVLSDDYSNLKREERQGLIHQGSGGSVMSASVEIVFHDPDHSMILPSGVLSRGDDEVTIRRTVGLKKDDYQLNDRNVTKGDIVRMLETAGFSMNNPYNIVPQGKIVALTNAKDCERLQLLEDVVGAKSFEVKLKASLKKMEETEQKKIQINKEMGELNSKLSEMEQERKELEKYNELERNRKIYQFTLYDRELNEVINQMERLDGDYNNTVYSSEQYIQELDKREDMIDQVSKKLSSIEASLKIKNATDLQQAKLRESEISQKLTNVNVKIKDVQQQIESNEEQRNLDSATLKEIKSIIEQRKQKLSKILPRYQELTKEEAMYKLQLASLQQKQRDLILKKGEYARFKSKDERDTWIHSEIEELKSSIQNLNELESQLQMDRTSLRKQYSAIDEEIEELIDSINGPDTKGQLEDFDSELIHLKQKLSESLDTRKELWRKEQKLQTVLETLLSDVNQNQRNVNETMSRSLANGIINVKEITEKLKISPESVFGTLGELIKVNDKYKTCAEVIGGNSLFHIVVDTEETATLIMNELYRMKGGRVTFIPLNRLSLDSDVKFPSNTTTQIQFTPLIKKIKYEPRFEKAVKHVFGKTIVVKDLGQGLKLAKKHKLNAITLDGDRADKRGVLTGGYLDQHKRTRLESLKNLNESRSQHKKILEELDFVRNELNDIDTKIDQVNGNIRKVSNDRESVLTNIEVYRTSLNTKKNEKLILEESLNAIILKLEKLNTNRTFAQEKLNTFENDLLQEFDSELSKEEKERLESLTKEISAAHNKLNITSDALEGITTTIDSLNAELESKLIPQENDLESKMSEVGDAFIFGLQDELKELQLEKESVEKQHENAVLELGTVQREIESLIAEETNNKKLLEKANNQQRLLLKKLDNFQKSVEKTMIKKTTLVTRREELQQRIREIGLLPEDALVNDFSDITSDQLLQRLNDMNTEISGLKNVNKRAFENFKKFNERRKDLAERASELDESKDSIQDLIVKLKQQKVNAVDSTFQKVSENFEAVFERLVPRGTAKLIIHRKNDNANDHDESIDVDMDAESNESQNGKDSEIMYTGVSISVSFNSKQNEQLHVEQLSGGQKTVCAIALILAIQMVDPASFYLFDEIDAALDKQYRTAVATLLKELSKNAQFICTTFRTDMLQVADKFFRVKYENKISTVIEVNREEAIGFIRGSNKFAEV

[2] = molecular target: T2, Smc3(K160C)-HaloTag (S. cerevisiae) (UniProt P47037)
T2 sequence: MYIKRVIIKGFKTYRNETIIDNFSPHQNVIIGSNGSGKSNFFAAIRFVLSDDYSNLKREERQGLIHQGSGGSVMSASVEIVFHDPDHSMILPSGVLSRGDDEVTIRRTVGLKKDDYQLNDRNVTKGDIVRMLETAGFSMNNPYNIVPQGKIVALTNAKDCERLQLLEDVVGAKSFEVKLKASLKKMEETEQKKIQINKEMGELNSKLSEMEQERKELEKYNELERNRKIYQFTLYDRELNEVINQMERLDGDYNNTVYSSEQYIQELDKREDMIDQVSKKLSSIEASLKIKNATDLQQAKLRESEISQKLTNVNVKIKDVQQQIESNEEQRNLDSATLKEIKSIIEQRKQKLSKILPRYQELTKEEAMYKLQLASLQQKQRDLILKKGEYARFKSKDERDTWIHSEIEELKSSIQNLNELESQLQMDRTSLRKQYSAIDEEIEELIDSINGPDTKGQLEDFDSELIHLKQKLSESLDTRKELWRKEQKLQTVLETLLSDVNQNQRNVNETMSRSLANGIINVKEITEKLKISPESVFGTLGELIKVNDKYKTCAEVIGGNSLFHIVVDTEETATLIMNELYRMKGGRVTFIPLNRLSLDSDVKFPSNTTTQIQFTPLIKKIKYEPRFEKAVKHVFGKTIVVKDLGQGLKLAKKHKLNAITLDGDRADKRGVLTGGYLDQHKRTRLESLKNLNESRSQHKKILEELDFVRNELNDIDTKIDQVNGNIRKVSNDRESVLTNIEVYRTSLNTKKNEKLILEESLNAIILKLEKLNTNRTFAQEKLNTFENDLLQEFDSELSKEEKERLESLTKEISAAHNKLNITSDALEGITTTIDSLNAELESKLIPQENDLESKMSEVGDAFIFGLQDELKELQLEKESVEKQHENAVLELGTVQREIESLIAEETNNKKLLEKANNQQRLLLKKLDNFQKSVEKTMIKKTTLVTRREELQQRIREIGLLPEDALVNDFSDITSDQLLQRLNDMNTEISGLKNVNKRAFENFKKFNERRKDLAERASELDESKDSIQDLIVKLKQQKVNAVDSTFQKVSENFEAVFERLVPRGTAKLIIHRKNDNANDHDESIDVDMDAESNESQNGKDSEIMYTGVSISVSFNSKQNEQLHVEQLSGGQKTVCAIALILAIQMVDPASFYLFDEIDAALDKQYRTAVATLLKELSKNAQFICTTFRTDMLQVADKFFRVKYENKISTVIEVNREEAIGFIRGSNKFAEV

[3] = molecular target: T3, Smc3(K160C, S1127R)-HaloTag (S. cerevisiae) (UniProt P47037)
T3 sequence: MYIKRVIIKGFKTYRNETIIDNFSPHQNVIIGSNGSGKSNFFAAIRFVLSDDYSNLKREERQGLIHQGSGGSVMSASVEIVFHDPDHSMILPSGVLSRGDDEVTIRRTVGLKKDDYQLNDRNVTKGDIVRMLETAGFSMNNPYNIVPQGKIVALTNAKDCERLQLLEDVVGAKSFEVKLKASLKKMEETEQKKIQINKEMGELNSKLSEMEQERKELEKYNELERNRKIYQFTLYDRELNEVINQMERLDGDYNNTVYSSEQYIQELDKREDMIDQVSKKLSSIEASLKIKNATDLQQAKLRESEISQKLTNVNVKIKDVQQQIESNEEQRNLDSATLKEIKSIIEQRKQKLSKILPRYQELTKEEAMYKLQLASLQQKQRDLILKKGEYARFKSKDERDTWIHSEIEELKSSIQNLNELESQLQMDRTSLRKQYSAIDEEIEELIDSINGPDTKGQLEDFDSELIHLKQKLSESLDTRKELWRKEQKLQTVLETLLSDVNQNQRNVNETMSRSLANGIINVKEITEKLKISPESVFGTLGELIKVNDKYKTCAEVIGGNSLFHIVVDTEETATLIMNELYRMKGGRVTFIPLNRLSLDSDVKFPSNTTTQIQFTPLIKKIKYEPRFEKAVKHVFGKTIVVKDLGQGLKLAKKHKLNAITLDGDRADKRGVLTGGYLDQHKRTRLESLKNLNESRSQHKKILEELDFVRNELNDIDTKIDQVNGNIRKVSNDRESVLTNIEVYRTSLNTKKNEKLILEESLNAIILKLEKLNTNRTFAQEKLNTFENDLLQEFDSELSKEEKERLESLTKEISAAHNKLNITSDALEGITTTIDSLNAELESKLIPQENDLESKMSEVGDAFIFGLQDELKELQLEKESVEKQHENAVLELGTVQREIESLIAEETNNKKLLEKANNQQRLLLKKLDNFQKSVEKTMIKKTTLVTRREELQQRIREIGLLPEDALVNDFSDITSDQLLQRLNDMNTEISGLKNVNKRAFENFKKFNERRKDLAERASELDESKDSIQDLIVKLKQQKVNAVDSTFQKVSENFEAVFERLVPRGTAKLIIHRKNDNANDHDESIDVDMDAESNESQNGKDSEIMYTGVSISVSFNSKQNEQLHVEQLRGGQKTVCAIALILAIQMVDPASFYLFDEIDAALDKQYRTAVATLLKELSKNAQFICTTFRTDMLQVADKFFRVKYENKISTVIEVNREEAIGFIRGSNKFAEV

Measured: binding

B1: Smc1(S161C) (protein, UniProt P32908 1-1225)
chain: MGRLVGLELSNFKSYRGVTKVGFGESNFTSIIGPNGSGKSNMMDAISFVLGVRSNHLRSNILKDLIYRGVLNDENSDDYDNEGAASSNPQSAYVKAFYQKGNKLVELMRIISRNGDTSYKIDGKTVSYKDYSIFLENENILIKAKNFLVFQGDVEQIAAQCPVELSRMFEEVSGSIQYKKEYEELKEKIEKLSKSATESIKNRRRIHGELKTYKEGINKNEEYRKQLDKKNELQKFQALWQLYHLEQQKEELTDKLSALNSEISSLKGKINNEMKSLQRSKSSFVKESAVISKQKSKLDYIFKDKEKLVSDLRLIKVPQQAAGKRISHIEKRIESLQKDLQRQKTYVERFETQLKVVTRSKEAFEEEIKQSARNYDKFKLNENDLKTYNCLHEKYLTEGGSILEEKIAVLNNDKREIQEELERFNKRADISKRRITEELSITGEKLDTQLNDLRVSLNEKNALHTERLHELKKLQSDIESANNQEYDLNFKLRETLVKIDDLSANQRETMKERKLRENIAMLKRFFPGVKGLVHDLCHPKKEKYGLAVSTILGKNFDSVIVENLTVAQECIAFLKKQRAGTASFIPLDTIETELPTLSLPDSQDYILSINAIDYEPEYEKAMQYVCGDSIICNTLNIAKDLKWKKGIRGKLVTIEGALIHKAGLMTGGISGDANNRWDKEEYQSLMSLKDKLLIQIDELSNGQRSNSIRAREVENSVSLLNSDIANLRTQVTQQKRSLDENRLEIKYHNDLIEKEIQPKITELKKKLDDLENTKDNLVKEKEALQNNIFKEFTSKIGFTIKEYENHSGELMRQQSKELQQLQKQILTVENKLQFETDRLSTTQRRYEKAQKDLENAQVEMKSLEEQEYAIEMKIGSIESKLEEHKNHLDELQKKFVTKQSELNSSEDILEDMNSNLQVLKRERDGIKEDIEKFDLERVTALKNCKISNINIPISSETTIDDLPISSTDNEAITISNSIDINYKGLPKKYKENNTDSARKELEQKIHEVEEILNELQPNARALERYDEAEGRFEVINNETEQLKAEEKKILNQFLKIKKKRKELFEKTFDYVSDHLDAIYRELTKNPNSNVELAGGNASLTIEDEDEPFNAGIKYHATPPLKRFKDMEYLSGGEKTVAALALLFAINSYQPSPFFVLDEVDAALDITNVQRIAAYIRRHRNPDLQFIVISLKNTMFEKSDALVGVYRQQQENSSKIITLDLSNYAE
binds: all assays above
